Data: publication PMC7819943, “Rice protein-binding microarrays: a tool to detect cis-acting elements near promoter regions in rice”
This is one part of the list.

Target: T1, OsSMF1 (Oryza sativa, UniProt Q6ZLB0 1-436)
T1 sequence: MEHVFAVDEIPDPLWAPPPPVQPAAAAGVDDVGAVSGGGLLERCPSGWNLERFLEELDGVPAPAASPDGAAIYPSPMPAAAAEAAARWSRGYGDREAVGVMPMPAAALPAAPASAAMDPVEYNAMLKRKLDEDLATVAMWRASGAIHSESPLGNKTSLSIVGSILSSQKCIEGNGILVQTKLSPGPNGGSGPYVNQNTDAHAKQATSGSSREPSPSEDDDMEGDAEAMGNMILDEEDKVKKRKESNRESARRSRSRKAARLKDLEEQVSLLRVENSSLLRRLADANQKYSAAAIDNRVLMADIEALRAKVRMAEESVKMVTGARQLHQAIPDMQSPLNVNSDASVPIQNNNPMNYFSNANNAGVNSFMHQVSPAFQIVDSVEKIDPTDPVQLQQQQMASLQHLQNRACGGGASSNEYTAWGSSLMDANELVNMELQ
Assay: protein-binding microarray (RPBM); PBS, 2% BSA, 51.3 ng/ul salmon testes DNA, 50 uM zinc acetate, 200 nM TF, 25 C, 1 h; high values mean tight binding
Conditions: protein: recombinant; tags: N-terminal polyhistidine and DsRed monomer fusion (pET32a); chain copies: 2; label: CyDye5-dUTP incorporated in the synthesized complementary strand; 3' TTTTT single-stranded linker to array surface; dsDNA, one strand shown
Method in brief: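 The binding signal for each feature is its fluorescence intensity in arbitrary units. An Axon 4000B scanner was used to read a custom Agilent array that had been made double-stranded with Cy5-dUTP primer extension, blocked with 2% BSA, incubated at 25 °C for 1 h with 200 nM protein in PBS, 2% BSA, salmon testes DNA and 50 µM zinc acetate, and washed. The protein was an N-terminal polyhistidine–DsRed transcription factor fusion from E. coli BL21-CodonPlus, purified on Ni–NTA.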

Sequence | binding signal
GGAGGAAGAGAGACCTTGCTGACGTGGCACCTGACATGTGCGGAGTCACCTAGTGCAG | 7440 fluorescence intensity (a.u.)
TAGTTTTATTGCAATCTGACGTATCCCCAAGCAGGTATCACGGAGTCACCTAGTGCAG | 7770 fluorescence intensity (a.u.)
TCTCGCCATTTCCGCGGCGCCACCGCACTCCGCCACTCTCCGGAGTCACCTAGTGCAG | 3180 fluorescence intensity (a.u.)
CTGGTGCTGACGTGGAAGGGGCACGCCGCCGTGTTCACCGCGGAGTCACCTAGTGCAG | 16300 fluorescence intensity (a.u.)
AACACACAAGCAGGCGACGTGGCAGCCAGAGAGGGGCTAACGGAGTCACCTAGTGCAG | 6280 fluorescence intensity (a.u.)
GTACAAGACTTGGTGCTCACGTATTATGTTTGGTACTATTCGGAGTCACCTAGTGCAG | 3300 fluorescence intensity (a.u.)
GCTGACATGTGGGCCCACCCTTCAGAGAGAACACACTGGCCGGAGTCACCTAGTGCAG | 24500 fluorescence intensity (a.u.)
TGCACACCCAGGTTGAAGACGACAATGACGAGCTCGGGCGCGGAGTCACCTAGTGCAG | 3330 fluorescence intensity (a.u.)
TTGGGCCGGGCCCATTACGGCTACATAGGCCTCGACGACCCGGAGTCACCTAGTGCAG | 5640 fluorescence intensity (a.u.)
TTGTCTTGCGTTGGCGTCAGCACCTCCTTCACCGCGGCTTCGGAGTCACCTAGTGCAG | 5660 fluorescence intensity (a.u.)
AAATTTTAGTGGAGTTAAATTTTAACTCATGGTGACGTGGCGGAGTCACCTAGTGCAG | 37100 fluorescence intensity (a.u.)
CCATTTCCCGTCGTCTCCACCTCACCACCTCTCTAAACAACGGAGTCACCTAGTGCAG | 4650 fluorescence intensity (a.u.)
GCGAAGGAGCTTATCCGCTAAGACGTGGCTGCATCTCTCCCGGAGTCACCTAGTGCAG | 4310 fluorescence intensity (a.u.)
TTAACTTTTATGTTTGTAGAGTGATATATCACATATTAATCGGAGTCACCTAGTGCAG | 20900 fluorescence intensity (a.u.)
TGTTTTACCTTGAGTTATCTGATGTTGACTGGTGTGTACTCGGAGTCACCTAGTGCAG | 3560 fluorescence intensity (a.u.)
TCCCGCCCGCCCGTGACGCGTACAGCCGTACACCCATTCCCGGAGTCACCTAGTGCAG | 8830 fluorescence intensity (a.u.)
CTAACTCTTTGGGCTGGGCCACGTCAAGATCTGAGCAATTCGGAGTCACCTAGTGCAG | 6710 fluorescence intensity (a.u.)
CGAGATATAATTGCCATGTCATTGCCACGTCAATGTCACGCGGAGTCACCTAGTGCAG | 49600 fluorescence intensity (a.u.)
CGCGCGCATGGGCAACATACCTCGGAGCCGATCGCGTCCGCGGAGTCACCTAGTGCAG | 5880 fluorescence intensity (a.u.)
ATGTATGTATGTATGTGTGTGTGTGTATATATATATATATCGGAGTCACCTAGTGCAG | 4560 fluorescence intensity (a.u.)
GGGTTCATACTGAATTTACATTTCCTGTTGCACACGCATGCGGAGTCACCTAGTGCAG | 3190 fluorescence intensity (a.u.)

Taken from above (two entries):
Sequence | binding signal
TGCACACCCAGGTTGAAGACGACAATGACGAGCTCGGGCGCGGAGTCACCTAGTGCAG | 3330 fluorescence intensity (a.u.)
TTGGGCCGGGCCCATTACGGCTACATAGGCCTCGACGACCCGGAGTCACCTAGTGCAG | 5640 fluorescence intensity (a.u.)

The list continues:

Sequence | binding signal
GAATCCGGCAGGGCTTCGCCCCTTCTTATCTTCTCCTCCCCGGAGTCACCTAGTGCAG | 5250 fluorescence intensity (a.u.)
TGGGCCCCACATACCAGCCACGGCGCCGCCACGTCGGATCCGGAGTCACCTAGTGCAG | 15800 fluorescence intensity (a.u.)
ATTGAACATTTCACGTCAGACATGGACATAGGATCCTGTTCGGAGTCACCTAGTGCAG | 4990 fluorescence intensity (a.u.)
GGAAGATATGAGGTGAAGAAACTGATGCCCCAGGTGGCAACGGAGTCACCTAGTGCAG | 3520 fluorescence intensity (a.u.)
ACCCTTTTCCTCGTATGGTAGTGACTCGTCTCGTTTGCTTCGGAGTCACCTAGTGCAG | 4470 fluorescence intensity (a.u.)
ACCTCGCTCACTCGCTCGCTCGATCACCGCGACCTCACTCCGGAGTCACCTAGTGCAG | 16800 fluorescence intensity (a.u.)
AGTCAGGTACATGGCACCAGGTAAGCTAGTATCATCTGTTCGGAGTCACCTAGTGCAG | 3510 fluorescence intensity (a.u.)
CTCCAAATTAGTATCCAAACATCCGATGTGACATGGACTTCGGAGTCACCTAGTGCAG | 4370 fluorescence intensity (a.u.)
AAGAGGAGAGCAAAACTCCAAATGGTCACACGTCTCTCGGCGGAGTCACCTAGTGCAG | 4210 fluorescence intensity (a.u.)
GGGGCGGCGAAACTTACAGCGAGCCGGTGAGCACGGCGAACGGAGTCACCTAGTGCAG | 24400 fluorescence intensity (a.u.)
ATGATGCTGAAAAGGAAGAGGGTTTTGATATGGATAGTGACGGAGTCACCTAGTGCAG | 9440 fluorescence intensity (a.u.)
TCCTCACTGGAATGATGTCATGACATGAATAGATATATCTCGGAGTCACCTAGTGCAG | 5910 fluorescence intensity (a.u.)
TAGTAACCTAGGAGCGGATGACGTATCCTCTCTCCGTCTCCGGAGTCACCTAGTGCAG | 9270 fluorescence intensity (a.u.)
AAAATTACACACAGCATGTACATTACGTCACACCTCATTCCGGAGTCACCTAGTGCAG | 8330 fluorescence intensity (a.u.)
AAGCTTCCGGATCTCCTCCTCGATCCTGCCGCGCATCTCCCGGAGTCACCTAGTGCAG | 4300 fluorescence intensity (a.u.)
TAAATTTCACAAAACTACGTGTATTTTGACCAAATTATCACGGAGTCACCTAGTGCAG | 3140 fluorescence intensity (a.u.)
CCGGTGTCATGCGGGACCCACGTGTAAGTGATAGAGTGGGCGGAGTCACCTAGTGCAG | 6820 fluorescence intensity (a.u.)
CCTCCGTGTGAGTGTGACGCACCTTACATCCCAGCACAGACGGAGTCACCTAGTGCAG | 6090 fluorescence intensity (a.u.)
ACCGGCCCAGAACAGTTGGGCAGCCCACGAAGTCACCAACCGGAGTCACCTAGTGCAG | 3250 fluorescence intensity (a.u.)
CTCCACCACGAGTCACGAGTCACGACCACCTCTCCGGTCTCGGAGTCACCTAGTGCAG | 4170 fluorescence intensity (a.u.)
AACCATGGGCTGCTTTCACCGTGTTGTGTTCATCTCCTTCCGGAGTCACCTAGTGCAG | 25900 fluorescence intensity (a.u.)
